We go through four molecules from patent US20240018161A1, “MODULATORS OF CYSTIC FIBROSIS TRANSMEMBRANE CONDUCTANCE REGULATOR” (VERTEX PHARMACEUTICALS INCORPORATED, priority 2020, published 2024).

Protein sequences, listed by entry. Tags and fused reporters are not part of them. Chains listed by the source or under a name are the forms on record and can include a tag or linker.
UniProt P13569, with tags, fused parts or gaps DEL508-508: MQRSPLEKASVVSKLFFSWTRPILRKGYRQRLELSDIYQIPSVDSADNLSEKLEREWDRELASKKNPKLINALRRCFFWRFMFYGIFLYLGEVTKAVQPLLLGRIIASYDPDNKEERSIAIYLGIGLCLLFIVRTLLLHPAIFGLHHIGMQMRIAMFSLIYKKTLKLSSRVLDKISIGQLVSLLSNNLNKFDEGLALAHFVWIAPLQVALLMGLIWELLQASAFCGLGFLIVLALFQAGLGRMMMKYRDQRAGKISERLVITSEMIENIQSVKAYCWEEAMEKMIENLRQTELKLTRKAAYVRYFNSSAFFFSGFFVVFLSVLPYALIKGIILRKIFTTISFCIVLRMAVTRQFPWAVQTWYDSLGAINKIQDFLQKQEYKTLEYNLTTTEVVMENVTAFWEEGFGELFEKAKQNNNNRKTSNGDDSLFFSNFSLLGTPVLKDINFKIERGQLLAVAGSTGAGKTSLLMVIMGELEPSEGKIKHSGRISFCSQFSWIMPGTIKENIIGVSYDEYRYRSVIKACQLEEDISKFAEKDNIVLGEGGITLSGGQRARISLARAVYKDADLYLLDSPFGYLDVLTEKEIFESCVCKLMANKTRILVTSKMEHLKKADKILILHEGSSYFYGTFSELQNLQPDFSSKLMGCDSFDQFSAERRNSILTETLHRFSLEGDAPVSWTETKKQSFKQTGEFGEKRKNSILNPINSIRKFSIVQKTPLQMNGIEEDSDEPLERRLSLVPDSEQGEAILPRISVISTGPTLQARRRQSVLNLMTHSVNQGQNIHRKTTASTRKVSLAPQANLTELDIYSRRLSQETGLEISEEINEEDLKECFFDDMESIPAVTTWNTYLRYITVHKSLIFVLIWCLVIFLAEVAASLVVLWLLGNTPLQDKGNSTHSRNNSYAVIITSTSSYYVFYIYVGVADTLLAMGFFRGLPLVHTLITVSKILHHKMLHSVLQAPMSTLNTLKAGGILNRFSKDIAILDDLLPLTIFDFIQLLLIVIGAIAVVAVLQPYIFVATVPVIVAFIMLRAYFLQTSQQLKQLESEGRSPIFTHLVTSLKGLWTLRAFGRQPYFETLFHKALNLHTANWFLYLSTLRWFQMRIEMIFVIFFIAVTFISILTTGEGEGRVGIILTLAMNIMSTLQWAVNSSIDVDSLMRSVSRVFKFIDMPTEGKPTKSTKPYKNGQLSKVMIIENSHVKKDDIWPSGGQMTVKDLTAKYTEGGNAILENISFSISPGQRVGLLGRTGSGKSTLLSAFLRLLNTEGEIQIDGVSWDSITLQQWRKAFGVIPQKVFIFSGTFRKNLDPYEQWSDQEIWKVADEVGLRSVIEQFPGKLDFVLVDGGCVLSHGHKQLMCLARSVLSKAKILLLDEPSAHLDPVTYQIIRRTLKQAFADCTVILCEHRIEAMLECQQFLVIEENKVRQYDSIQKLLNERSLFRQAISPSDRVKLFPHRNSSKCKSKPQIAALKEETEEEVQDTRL

Structures were worked out from names or drawings and are uncertain.

The target in this assay is CFTR-mediated chloride transport in human intestinal epithelial enteroid cells (Homo sapiens, UniProt P13569). Description: Membrane potential dye, Enteroid Assay A. The note with it: for Ent. A Max Activity (%): percentage of chloride transport of triple combination control (3 μM N-[(6-amino-2-pyridyl)sulfonyl]-6-(3-fluoro-5-isobutoxy-phenyl)-2-[(4S)-2,2,4-trimethylpyrrolidin-1-yl]pyridine-3-carboxamide based); for EC50: read-out: Ent. A EC50, enteroid cells incubated with test compound 18-24 hours, acute 10 μM forskolin and 300 nM N-[2,4-bis(1,1-dimethylethyl)-5-hydroxyphenyl]-1,4-dihydro-4-oxoquinoline-3-carboxamide.

Take `Cc1cnc2cc1C(=O)N1Cc3ccccc3C(C1)Oc1cc(-c3c(C)cccc3C)nc(n1)NS2(=O)=O` (centres unmarked): the “Ent. A Max Activity (%)” value is reported as “+ (+ is <300%)” and the 50% effective concentration (EC50) fell in the range of 1000 to 3000 nM.

For `Cc1cccc(C)c1-c1cc2nc(n1)NS(=O)(=O)c1cccc(c1)C(=O)N1CCN(CC3CC4C=CC3C4)C[C@@H]1CO2` (some centres unmarked), the “Ent. A Max Activity (%)” value is recorded as “++ (++ is 30-60%)” and the EC50 was under 1000 nM.

Turning to `Cc1ccccc1-c1cc2nc(n1)NS(=O)(=O)c1cccc(c1)C(=O)N1Cc3ccccc3C(C1)O2` (centres unmarked), the “Ent. A Max Activity (%)” value is “++ (++ is 30-60%)” and the EC50 is under 1000 nM.

As to `Cc1cccc(C)c1-c1cc2nc(n1)NS(=O)(=O)c1cccc(c1)C(=O)N1CC(CC1(C)C)O2` (centres unmarked), the “Ent. A Max Activity (%)” value was “++ (++ is 30-60%)” and the EC50 lay within 3000 to 30000 nM.

Usually EC50 stands for the concentration needed to bring the measured effect to its halfway point.
